Results published in US20080199503A1, “Pharmaceutical Compositions Preparation of Peptides, Secreted by the Snake Venom Glands, Particularly of Bothrops Jararaca, Vasopeptidases Inhibitors, Evasins, Their Analogues, Derivatives and Products Associated, Thereof, for Development of Applications and Use in Chronic-Degenerative Diseases” (priority 2002, published 2008).
At least one structure is not confirmed: it was looked up by name or label, or the drawing left a doubt. Square brackets hold non-standard residues; d marks the D form. Peptide text beside a SMILES is read from it. pGlu = O=C1CC[C@@H](C(=O)O)N1

Sequences of proteins named here, by UniProt entry; tags and fusion partners are left off. Residues count along the entry.
UniProt P12821, 643-1222 limits assumed, species assumed: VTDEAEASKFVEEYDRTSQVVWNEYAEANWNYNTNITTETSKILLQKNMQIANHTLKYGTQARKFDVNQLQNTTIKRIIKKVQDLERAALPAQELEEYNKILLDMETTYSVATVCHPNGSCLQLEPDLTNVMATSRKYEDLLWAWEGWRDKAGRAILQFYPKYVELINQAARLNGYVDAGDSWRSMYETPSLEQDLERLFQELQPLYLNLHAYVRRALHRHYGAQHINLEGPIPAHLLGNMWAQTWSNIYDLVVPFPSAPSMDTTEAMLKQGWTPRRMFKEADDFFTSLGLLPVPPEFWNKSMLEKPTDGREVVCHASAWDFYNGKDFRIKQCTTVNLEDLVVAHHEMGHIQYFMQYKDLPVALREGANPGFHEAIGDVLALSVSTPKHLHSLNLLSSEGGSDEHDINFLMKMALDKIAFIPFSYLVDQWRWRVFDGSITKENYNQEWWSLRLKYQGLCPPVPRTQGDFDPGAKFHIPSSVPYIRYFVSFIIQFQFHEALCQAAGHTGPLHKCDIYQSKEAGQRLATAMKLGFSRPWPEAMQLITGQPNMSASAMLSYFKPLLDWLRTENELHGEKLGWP
UniProt P12821, 40-624 limits assumed, species assumed: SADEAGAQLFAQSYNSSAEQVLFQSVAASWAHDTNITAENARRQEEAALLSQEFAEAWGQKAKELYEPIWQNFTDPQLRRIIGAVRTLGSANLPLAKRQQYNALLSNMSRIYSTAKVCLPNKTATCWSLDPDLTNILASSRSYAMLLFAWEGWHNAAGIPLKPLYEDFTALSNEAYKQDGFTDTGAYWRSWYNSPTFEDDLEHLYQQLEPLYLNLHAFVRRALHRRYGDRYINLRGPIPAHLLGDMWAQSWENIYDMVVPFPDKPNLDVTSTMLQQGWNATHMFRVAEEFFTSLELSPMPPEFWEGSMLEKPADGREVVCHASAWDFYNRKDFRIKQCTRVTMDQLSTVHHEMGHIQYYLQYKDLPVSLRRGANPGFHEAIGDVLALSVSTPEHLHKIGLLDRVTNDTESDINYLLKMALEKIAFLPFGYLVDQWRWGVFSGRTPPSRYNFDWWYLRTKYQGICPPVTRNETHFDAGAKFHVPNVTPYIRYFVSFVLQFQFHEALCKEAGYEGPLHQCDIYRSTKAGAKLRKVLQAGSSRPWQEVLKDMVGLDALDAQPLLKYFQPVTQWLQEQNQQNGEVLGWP

Tests used:
[1] = target: C-terminal catalytic site of the Angiotensin I converting enzyme (recombinant ACE) (Homo sapiens, UniProt P12821); assay: Inhibition of the C-terminal catalytic site of recombinant ACE (fluorogenic substrate); format: biochemical; settings: read-out: ECA - Ki, C-terminal, substrate Mca-Ala-Ser-Asp-Lys-DpaOH, 25° C., pH 6.8
Protocol: (§1) The fractions from purification were submitted to mass spectrometry analysis to conforming the Evasins molar mass after purification. • The enzyme assays for the recombinant ACE inhibition were conducted using the substrate Mca-Ala-Ser-Asp-Lys-DpaOH, at 25° C., in a 50 mM Hepes buffer (pH 6.8), 200 mM NaCl and […] ZnCl2.

[2] = target: N-terminal catalytic site of the Angiotensin I converting enzyme (recombinant ACE) (Homo sapiens, UniProt P12821); assay: Inhibition of the N-terminal catalytic site of recombinant ACE (fluorogenic substrate); format: biochemical; settings: read-out: ECA - Ki, N-terminal, substrate Mca-Ala-Ser-Asp-Lys-DpaOH, 25° C., pH 6.8
Protocol: as §1

With `CC[C@H](C)[C@H](NC(=O)[C@@H]1CCCN1C(=O)[C@@H]1CCCN1C(=O)[C@H](Cc1c[nH]cn1)NC(=O)[C@@H]1CCCN1C(=O)[C@@H]1CCCN1C(=O)[C@H](CCCNC(=N)N)NC(=O)[C@H](C)NC(=O)[C@@H]1CCC(=O)N1)C(=O)N1CCC[C@H]1C(=O)N1CCC[C@H]1C(=O)O` [EVASIN-11e, EARPPHPPIPP] ([pGlu]ARPPHPPIPP-OH; C-terminus assumed) the Ki [1] was 300 nM and the Ki [2] was 100 nM.
